Taken from: PubChem BioAssay AID1259405 (NCATS, 2018)
In all, the deposit lists about 50,000 reagents; this is an unselected part. About 4,000 of all reagents (8%) count as active. 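Mouse siRNA library applied to hamster cells; one well for each siRNA.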

- Assay: 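Mouse-designed siRNAs used to find CHO productivity engineering targets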 (primary screen)
- Cells: Chinese hamster CHO-K1 ovary cells with stable secreted eGFP expression
- Reagent: single siRNA against mouse genes, 0.8 pmol siRNA per well (2 µl of 400 nM stock)
- Time to read-out: 3 days
- Read-out: 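Per-well intracellular GFP measured by laser scanning cytometry, plus viability from ATP luminescence, each relative to plate median of non-targeting control wells, in %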
- Scale: GFP, % of control: higher = more GFP per well, higher productivity; viability (ATP), % of control: higher = more viable cells (more ATP)
- Hit rule: 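a knock-down is called active if GFP reaches 120% or more of non-targeting control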

| gene knocked down | PubChem SID | GFP, % of control | viability (ATP), % of control | Call |
| --- | --- | --- | --- | --- |
| Btf3l4 | SID363555240 | 86 | 77.5 | inactive |
| Btf3l4 | SID363563901 | 55.5 | 56.5 | inactive |
| Btf3l4 | SID363587447 | 83.8 | 97.8 | inactive |
| Rasef | SID363541648 | 64.6 | 57.8 | inactive |
| Rasef | SID363553240 | 15.4 | 15.9 | inactive |
| Rasef | SID363566564 | 65.5 | 57.5 | inactive |
| Wdr53 | SID363556651 | 37.9 | 32.1 | inactive |
| Wdr53 | SID363563555 | 87.6 | 80.9 | inactive |
| Wdr53 | SID363587101 | 64.1 | 79.3 | inactive |
| Ttc41 | SID363546729 | 49.3 | 82.9 | inactive |
| Ttc41 | SID363548485 | 73 | 120 | inactive |
| Ttc41 | SID363560663 | 90.3 | 69.7 | inactive |
| Lamb1 | SID363582645 | 148 | 153 | active |
| Lamb1 | SID363584405 | 116 | 76.7 | inactive |
| Zc3h10 | SID363545996 | 61 | 68.2 | inactive |
| Zc3h10 | SID363549509 | 48.4 | 73.3 | inactive |
| Zc3h10 | SID363563315 | 60.4 | 65.6 | inactive |
| Caps2 | SID363581626 | 72 | 56.2 | inactive |
| Caps2 | SID363589120 | 99.4 | 89.3 | inactive |
| Usp4 | SID363574329 | 88.1 | 90.1 | inactive |
| Usp4 | SID363575385 | 82.9 | 79.9 | inactive |
| Usp4 | SID363579961 | 37.4 | 35.6 | inactive |
| Vmn2r123 | SID363545082 | 109 | 61.1 | inactive |
| Vmn2r123 | SID363551410 | 85.8 | 96.7 | inactive |
| Vmn2r123 | SID363557959 | 80.1 | 76.5 | inactive |
| Cript | SID363540553 | 80.3 | 91.2 | inactive |
| Cript | SID363543004 | 54.5 | 74.6 | inactive |
| Cript | SID363552497 | 70.7 | 70.7 | inactive |
| Sprr2f | SID363556487 | 83 | 64.4 | inactive |
| Sprr2f | SID363586937 | 107 | 122 | inactive |
| Sprr2f | SID363589045 | 136 | 131 | active |
| Tmem70 | SID363540872 | 74.2 | 82.3 | inactive |
| Tmem70 | SID363543323 | 105 | 67.6 | inactive |
| Tmem70 | SID363552816 | 82.4 | 80.9 | inactive |
| Yars1 | SID363584449 | 99.7 | 66.3 | inactive |
| Yars1 | SID363589479 | 165 | 143 | active |
| Las1l | SID363552343 | 72.3 | 88.3 | inactive |
| Las1l | SID363585479 | 71.6 | 98.1 | inactive |
| Las1l | SID363585830 | 63.2 | 109 | inactive |
| Nat9 | SID363540588 | 77.3 | 92.7 | inactive |
| Nat9 | SID363543039 | 125 | 81.4 | active |
| Nat9 | SID363552532 | 70.5 | 30.1 | inactive |
| Crocc | SID363555409 | 42.6 | 21.3 | inactive |
| Crocc | SID363564070 | 71.8 | 28.3 | inactive |
| Crocc | SID363587616 | 125 | 90.3 | active |
| Nxph2 | SID363541762 | 90.8 | 104 | inactive |
| Nxph2 | SID363553354 | 19.6 | 21.5 | inactive |
| Nxph2 | SID363566678 | 133 | 83.1 | active |
| Rbck1 | SID363541765 | 98.8 | 89.8 | inactive |
| Rbck1 | SID363553357 | 119 | 104 | inactive |
| Rbck1 | SID363566681 | 71.9 | 69.6 | inactive |
| Triml1 | SID363541801 | 70.1 | 49.5 | inactive |
| Triml1 | SID363553393 | 87.6 | 84.9 | inactive |
| Triml1 | SID363566717 | 30.3 | 39.4 | inactive |
| Rab8b | SID363570076 | 83.3 | 87.4 | inactive |
| Rab8b | SID363576412 | 95.4 | 75.6 | inactive |
| Rab8b | SID363579580 | 56.1 | 71.6 | inactive |

In a second layout: 8 of the entries above.
Lamb1 [SID363584405]
- GFP, % of control: 116
- viability (ATP), % of control: 76.7
- Call: inactive

Zc3h10 [SID363545996]
- GFP, % of control: 61
- viability (ATP), % of control: 68.2
- Call: inactive

Zc3h10 [SID363549509]
- GFP, % of control: 48.4
- viability (ATP), % of control: 73.3
- Call: inactive

Zc3h10 [SID363563315]
- GFP, % of control: 60.4
- viability (ATP), % of control: 65.6
- Call: inactive

Caps2 [SID363581626]
- GFP, % of control: 72
- viability (ATP), % of control: 56.2
- Call: inactive

Caps2 [SID363589120]
- GFP, % of control: 99.4
- viability (ATP), % of control: 89.3
- Call: inactive

Usp4 [SID363574329]
- GFP, % of control: 88.1
- viability (ATP), % of control: 90.1
- Call: inactive

Usp4 [SID363575385]
- GFP, % of control: 82.9
- viability (ATP), % of control: 79.9
- Call: inactive
